We go through nine molecules from patent publication US10106762B2, “Treating a textile garment with a hydrophobic dye solution” (Henkel IP & Holding GmbH, priority 2004, dated 2018).

The nature of data set [1]: Example 2 repeated with knitted nylon, reflectance deltaE. Particulars: 200 ppb dye, 30 minutes, UV excluded.
A short description of data set [2]: Example 2: dye deposition on knitted polyester at 200 ppb in wash solution, reflectance deltaE and Ganz whiteness. The following applies: 200 ppb dye; for Ganz whiteness: 1.8 g/L washing powder, accurate to +/-5 units, control 81; for Ganz whiteness / ΔE polyester: 30 minutes; for ΔE polyester: knitted polyester, UV excluded, compared to fabric washed without dye.

A short description of data set [3]: Example 1: dye deposition on woven polyester in wash solution, colour by reflectance spectrometer. The following applies: 5.7-5.8 ppm dye in 1.8 g/L base washing powder, 1 g woven polyester, shaken 30 minutes, rinsed, dried; compared to polyester washed without dye.

In the case of `COc1cc(/N=N/c2c(Br)cc([N+](=O)[O-])cc2[N+](=O)[O-])c(NC(C)=O)cc1N(CCOC(C)=O)CCOC(C)=O` [Disperse Blue 79:1], the ΔE nylon in data set [1] amounted to 1.7. Also, in data set [2], the Ganz whiteness was found to be 113; the ΔE polyester was 4.7; the “CT (Colour Transferred from the wash solution to the polyester, CT = deltaE/OD)” value is 96.

`CCN(CC)c1ccc(/N=N/c2c(C#N)cc([N+](=O)[O-])cc2C#N)c(NC(C)=O)c1` [Disperse Blue 165] showed a ΔE nylon in data set [1] of 5.0. Also, in data set [2], the Ganz whiteness is reported as 129; the ΔE polyester was determined as 7.5; the “CT (Colour Transferred from the wash solution to the polyester, CT = deltaE/OD)” value was found to be 107.

As to `CN=C1C=CC(=C(c2ccc(N(C)C)cc2)c2ccc(N(C)C)cc2)C=C1` [Solvent Violet 8, Solvent Violet 8 (Methyl Violet B Base)], the ΔE nylon in data set [1] amounted to 0.6. Also, in data set [2], the Ganz whiteness turned out to be 89; the ΔE polyester is listed as 1.1; the “CT (Colour Transferred from the wash solution to the polyester, CT = deltaE/OD)” value was 3.5.

In the case of `CCN(CCO)c1ccc(/N=N/c2ncc([N+](=O)[O-])s2)c(C)c1` [disperse blue 106], the deltaE in data set [3] was determined as 4.8.

On to `CCN(CCO)c1ccc(/N=N/c2ccc([N+](=O)[O-])cc2)cc1` [disperse red 1], for which the deltaE in data set [3] is on record as 10.9. Also, the ΔE nylon in data set [1] came to 11.8. Moreover, in data set [2], the Ganz whiteness was determined as 71; the ΔE polyester is given as 3.4; the “CT (Colour Transferred from the wash solution to the polyester, CT = deltaE/OD)” value was 150.

As to `CC1(C)Nc2cccc3c(/N=N/c4ccc(/N=N/c5ccccc5)c5ccccc45)ccc(c23)N1` [solvent black 3], in data set [3], the deltaE is listed as 5.0. The ΔE nylon in data set [1] came out at 0.6. Moreover, in data set [2], the Ganz whiteness is recorded as 74; the ΔE polyester amounted to 1.5; the “CT (Colour Transferred from the wash solution to the polyester, CT = deltaE/OD)” value is recorded as 6.4.

`Cc1ccccc1/N=N/c1ccc(/N=N/c2c(O)ccc3ccccc23)c(C)c1` [solvent red 24]: the deltaE in data set [3] is 10.6.

Disperse Blue 367 showed a ΔE nylon in data set [1] of 1.1. In data set [2], the Ganz whiteness was found to be 91; the ΔE polyester worked out at 1.4; the “CT (Colour Transferred from the wash solution to the polyester, CT = deltaE/OD)” value is listed as 250.

As to Solvent blue 43, the ΔE nylon in data set [1] is 0.4. For the same molecule, in data set [2], the Ganz whiteness is given as 88; the ΔE polyester came to 0.9; the “CT (Colour Transferred from the wash solution to the polyester, CT = deltaE/OD)” value is 2.1.
